PubChem BioAssay AID1259289 – Sanger Institute – 2017

Aim: 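Kinase-wide silencing tested with three anchor drugs to reveal synergistic lethal pairs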 (primary screen)
Cell system: human LS513 colorectal cancer cells
Reagents: siRNA pool against human genes
Conditions: anchor drug BYL719 at 1 µM, cetuximab at 5 µg/ml or trametinib at 10 nM, or DMSO vehicle alone; exposure time not given
Measured: 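Survival versus non-targeting pool for each arm averaged over replicates, robust z-score in the arm with DMSO only, and synergy scores for BYL719, cetuximab or trametinib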
Reading the numbers: robust z-score, siRNA alone (DMSO): higher = more viable cells; strongly negative means essential; viability with DMSO vs control: higher = more viable cells
Units: viability with DMSO vs control in fraction of control
Rule for the call: 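a gene counts as active if its DMSO-only robust z-score falls under -3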
Meaning of the calls: active = essential (knock-down alone); inactive = not essential
In all, the deposit lists 794 reagents; this is an unselected part. 16 of them (2%) were called active. 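Active marks cell loss from silencing alone; drug synergy shows only in the synergy scores, not the calls.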 No viability above 1 is reported: the scale is capped. Not all columns of the deposit are shown. No sequences are given here. Not given: the amount of reagent, the time to read-out.

Depletion of LMTK1 (GeneID 9625) gave: robust z-score, siRNA alone (DMSO) = -1.16; viability with DMSO vs control 0.756; inactive. Silencing of ADCK5 (GeneID 203054) came out at: robust z-score, siRNA alone (DMSO) = 0.561; viability with DMSO vs control 1; inactive. With knock-down of HIPK2 (GeneID 28996) the results were robust z-score, siRNA alone (DMSO) = 0.561; viability with DMSO vs control 1; inactive. Depletion of PRKCZ (GeneID 5590) gave: robust z-score, siRNA alone (DMSO) = -2.06; viability with DMSO vs control 0.628; inactive. Knock-down of TAOK2 (GeneID 9344) came out at: robust z-score, siRNA alone (DMSO) = 0.561; viability with DMSO vs control 1; inactive. For PRKACA (GeneID 5566), the values are robust z-score, siRNA alone (DMSO) = 0.561; viability with DMSO vs control 1; inactive.

MAP3K5 (GeneID 4217) scored robust z-score, siRNA alone (DMSO) = 0.561; viability with DMSO vs control 1; inactive. PRPS2 (GeneID 5634) gave robust z-score, siRNA alone (DMSO) = 0.561; viability with DMSO vs control 1; inactive. Knock-down of MOK (GeneID 5891) resulted in: robust z-score, siRNA alone (DMSO) = 0.561; viability with DMSO vs control 1; inactive. With knock-down of TSSK3 (GeneID 81629), the screen gave robust z-score, siRNA alone (DMSO) = 0.561; viability with DMSO vs control 1; inactive. Depletion of ITPKA (GeneID 3706) came out at: robust z-score, siRNA alone (DMSO) = 0.561; viability with DMSO vs control 1; inactive. With knock-down of TSSK1B (GeneID 83942), the record shows robust z-score, siRNA alone (DMSO) = 0.32; viability with DMSO vs control 0.966; inactive.

Part of the list above in another layout:
gene knocked down,"robust z-score, siRNA alone (DMSO)",viability with DMSO vs control,Outcome
ADCK5 (GeneID 203054),0.561,1,inactive
HIPK2 (GeneID 28996),0.561,1,inactive
PRKCZ (GeneID 5590),-2.06,0.628,inactive

Additional entries follow.
PAK2 (GeneID 5062) scored robust z-score, siRNA alone (DMSO) = 0.561; viability with DMSO vs control 1; inactive. With knock-down of PBK (GeneID 55872), the screen gave robust z-score, siRNA alone (DMSO) = 0.561; viability with DMSO vs control 1; inactive. HK1 (GeneID 3098) showed robust z-score, siRNA alone (DMSO) = 0.561; viability with DMSO vs control 1; inactive. Knock-down of FXN (GeneID 2395) gave: robust z-score, siRNA alone (DMSO) = 0.561; viability with DMSO vs control 1; inactive. For FOXP1 (GeneID 27086), the entry reads robust z-score, siRNA alone (DMSO) = -2.54; viability with DMSO vs control 0.561; inactive. CSNK1A1 (GeneID 1452) gave robust z-score, siRNA alone (DMSO) = 0.561; viability with DMSO vs control 1; inactive.

With knock-down of ANKK1 (GeneID 255239), the record shows robust z-score, siRNA alone (DMSO) = -0.776; viability with DMSO vs control 0.81; inactive.
